Measured values published in publication PMC5357316.
These are yes or no findings as the source states them, for the method shown. Binding seen in cells or lysates may run through a third protein. Some binding calls cover weakened binding; strength is not graded here. For some assays here: Sequences can lack the tags named with a protein.

Amino acid sequences for entries named in this document (tags omitted).
UniProt Q13009: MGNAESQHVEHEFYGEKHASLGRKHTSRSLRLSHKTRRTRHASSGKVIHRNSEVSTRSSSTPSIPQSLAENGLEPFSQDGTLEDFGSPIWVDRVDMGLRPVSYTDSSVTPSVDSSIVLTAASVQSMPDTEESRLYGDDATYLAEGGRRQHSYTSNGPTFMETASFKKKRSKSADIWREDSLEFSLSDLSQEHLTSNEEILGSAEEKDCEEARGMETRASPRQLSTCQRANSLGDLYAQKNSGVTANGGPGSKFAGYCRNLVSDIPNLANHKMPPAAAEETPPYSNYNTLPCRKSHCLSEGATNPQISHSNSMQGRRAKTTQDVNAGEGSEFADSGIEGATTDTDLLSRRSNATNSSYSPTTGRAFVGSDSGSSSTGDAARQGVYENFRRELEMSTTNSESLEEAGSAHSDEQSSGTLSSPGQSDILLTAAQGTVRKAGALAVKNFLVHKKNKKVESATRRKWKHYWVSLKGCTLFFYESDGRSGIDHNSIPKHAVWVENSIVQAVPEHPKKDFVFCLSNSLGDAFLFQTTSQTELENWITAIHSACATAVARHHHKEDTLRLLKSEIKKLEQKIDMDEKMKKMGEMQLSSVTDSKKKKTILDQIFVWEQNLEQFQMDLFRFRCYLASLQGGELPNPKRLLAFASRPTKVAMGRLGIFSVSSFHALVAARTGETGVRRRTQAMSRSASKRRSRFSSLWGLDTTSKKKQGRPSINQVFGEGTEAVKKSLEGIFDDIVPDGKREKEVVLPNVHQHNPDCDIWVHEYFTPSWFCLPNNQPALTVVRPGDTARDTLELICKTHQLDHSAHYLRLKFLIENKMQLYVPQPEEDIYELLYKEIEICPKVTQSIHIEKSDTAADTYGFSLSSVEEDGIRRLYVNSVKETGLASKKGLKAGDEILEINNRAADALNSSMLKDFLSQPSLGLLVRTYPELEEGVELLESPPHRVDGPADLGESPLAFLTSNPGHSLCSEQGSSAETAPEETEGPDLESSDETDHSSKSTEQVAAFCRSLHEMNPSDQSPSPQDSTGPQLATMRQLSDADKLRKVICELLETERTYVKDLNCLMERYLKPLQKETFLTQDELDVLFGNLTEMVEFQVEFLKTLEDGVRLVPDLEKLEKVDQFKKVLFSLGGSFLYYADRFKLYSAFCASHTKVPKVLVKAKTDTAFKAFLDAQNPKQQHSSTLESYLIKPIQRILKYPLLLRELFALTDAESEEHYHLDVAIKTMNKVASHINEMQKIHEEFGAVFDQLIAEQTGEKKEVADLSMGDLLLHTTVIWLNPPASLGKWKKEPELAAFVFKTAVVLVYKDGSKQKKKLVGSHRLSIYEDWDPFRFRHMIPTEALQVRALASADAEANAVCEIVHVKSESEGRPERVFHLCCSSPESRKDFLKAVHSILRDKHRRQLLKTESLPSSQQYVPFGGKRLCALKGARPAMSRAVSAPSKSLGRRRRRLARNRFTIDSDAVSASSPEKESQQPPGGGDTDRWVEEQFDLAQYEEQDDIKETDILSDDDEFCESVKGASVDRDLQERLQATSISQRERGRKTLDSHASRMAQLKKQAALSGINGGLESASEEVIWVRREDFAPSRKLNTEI
UniProt Q60610: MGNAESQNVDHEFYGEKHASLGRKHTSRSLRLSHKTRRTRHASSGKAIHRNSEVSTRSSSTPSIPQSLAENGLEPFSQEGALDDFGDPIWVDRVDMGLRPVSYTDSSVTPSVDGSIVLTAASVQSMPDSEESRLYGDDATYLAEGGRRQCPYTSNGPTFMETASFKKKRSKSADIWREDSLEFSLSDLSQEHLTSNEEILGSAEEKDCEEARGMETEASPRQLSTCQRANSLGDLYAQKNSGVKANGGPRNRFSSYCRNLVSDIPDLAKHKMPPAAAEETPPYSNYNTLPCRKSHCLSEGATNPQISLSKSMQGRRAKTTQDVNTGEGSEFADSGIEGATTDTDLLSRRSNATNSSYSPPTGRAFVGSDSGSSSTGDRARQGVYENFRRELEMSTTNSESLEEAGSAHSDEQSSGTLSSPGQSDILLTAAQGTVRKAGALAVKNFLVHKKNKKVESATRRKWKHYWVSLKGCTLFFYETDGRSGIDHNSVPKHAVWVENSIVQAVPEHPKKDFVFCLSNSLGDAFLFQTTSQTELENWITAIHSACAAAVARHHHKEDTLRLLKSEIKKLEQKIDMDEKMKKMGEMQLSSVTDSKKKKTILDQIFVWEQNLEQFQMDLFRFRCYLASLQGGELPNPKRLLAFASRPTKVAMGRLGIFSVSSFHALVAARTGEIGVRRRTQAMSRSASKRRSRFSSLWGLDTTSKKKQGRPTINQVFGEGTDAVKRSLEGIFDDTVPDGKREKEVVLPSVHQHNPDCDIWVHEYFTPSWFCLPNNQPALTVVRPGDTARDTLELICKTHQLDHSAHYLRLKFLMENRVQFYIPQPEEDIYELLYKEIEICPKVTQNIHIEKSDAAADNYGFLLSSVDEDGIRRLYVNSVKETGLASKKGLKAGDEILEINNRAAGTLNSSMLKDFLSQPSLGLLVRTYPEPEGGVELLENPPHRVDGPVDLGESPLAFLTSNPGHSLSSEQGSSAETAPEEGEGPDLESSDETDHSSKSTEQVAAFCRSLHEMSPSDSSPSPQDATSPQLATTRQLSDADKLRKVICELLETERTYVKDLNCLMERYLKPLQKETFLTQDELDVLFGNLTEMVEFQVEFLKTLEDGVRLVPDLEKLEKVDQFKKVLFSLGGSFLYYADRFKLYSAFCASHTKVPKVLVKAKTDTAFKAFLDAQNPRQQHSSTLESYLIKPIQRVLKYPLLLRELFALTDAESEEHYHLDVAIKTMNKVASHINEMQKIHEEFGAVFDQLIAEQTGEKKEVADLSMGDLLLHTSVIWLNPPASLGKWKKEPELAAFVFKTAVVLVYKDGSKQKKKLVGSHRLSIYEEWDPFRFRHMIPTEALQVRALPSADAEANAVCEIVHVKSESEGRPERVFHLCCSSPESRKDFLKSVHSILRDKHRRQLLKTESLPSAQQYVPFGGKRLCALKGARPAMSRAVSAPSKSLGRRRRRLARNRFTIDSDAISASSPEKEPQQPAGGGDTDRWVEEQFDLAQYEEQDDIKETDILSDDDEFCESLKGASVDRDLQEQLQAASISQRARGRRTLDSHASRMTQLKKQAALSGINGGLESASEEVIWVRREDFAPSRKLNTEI

Key:
[1] = biological target: T1, p140Cap over-expressed in SKBR3 cells (pBabe-puro retrovirus) (UniProt Q9QWI6); assay: co-IP; cell extracts in RIPA buffer; 1 mg of proteins immunoprecipitated with antibodies to p140Cap (legend: or to Tiam1) for 2 h at 4 °C with protein G-Sepharose beads; blotted for p140Cap and Tiam1; NeuT and p140 primary cancer cells, p140 over-expressing or mock SKBR3 cells
T1 sequence: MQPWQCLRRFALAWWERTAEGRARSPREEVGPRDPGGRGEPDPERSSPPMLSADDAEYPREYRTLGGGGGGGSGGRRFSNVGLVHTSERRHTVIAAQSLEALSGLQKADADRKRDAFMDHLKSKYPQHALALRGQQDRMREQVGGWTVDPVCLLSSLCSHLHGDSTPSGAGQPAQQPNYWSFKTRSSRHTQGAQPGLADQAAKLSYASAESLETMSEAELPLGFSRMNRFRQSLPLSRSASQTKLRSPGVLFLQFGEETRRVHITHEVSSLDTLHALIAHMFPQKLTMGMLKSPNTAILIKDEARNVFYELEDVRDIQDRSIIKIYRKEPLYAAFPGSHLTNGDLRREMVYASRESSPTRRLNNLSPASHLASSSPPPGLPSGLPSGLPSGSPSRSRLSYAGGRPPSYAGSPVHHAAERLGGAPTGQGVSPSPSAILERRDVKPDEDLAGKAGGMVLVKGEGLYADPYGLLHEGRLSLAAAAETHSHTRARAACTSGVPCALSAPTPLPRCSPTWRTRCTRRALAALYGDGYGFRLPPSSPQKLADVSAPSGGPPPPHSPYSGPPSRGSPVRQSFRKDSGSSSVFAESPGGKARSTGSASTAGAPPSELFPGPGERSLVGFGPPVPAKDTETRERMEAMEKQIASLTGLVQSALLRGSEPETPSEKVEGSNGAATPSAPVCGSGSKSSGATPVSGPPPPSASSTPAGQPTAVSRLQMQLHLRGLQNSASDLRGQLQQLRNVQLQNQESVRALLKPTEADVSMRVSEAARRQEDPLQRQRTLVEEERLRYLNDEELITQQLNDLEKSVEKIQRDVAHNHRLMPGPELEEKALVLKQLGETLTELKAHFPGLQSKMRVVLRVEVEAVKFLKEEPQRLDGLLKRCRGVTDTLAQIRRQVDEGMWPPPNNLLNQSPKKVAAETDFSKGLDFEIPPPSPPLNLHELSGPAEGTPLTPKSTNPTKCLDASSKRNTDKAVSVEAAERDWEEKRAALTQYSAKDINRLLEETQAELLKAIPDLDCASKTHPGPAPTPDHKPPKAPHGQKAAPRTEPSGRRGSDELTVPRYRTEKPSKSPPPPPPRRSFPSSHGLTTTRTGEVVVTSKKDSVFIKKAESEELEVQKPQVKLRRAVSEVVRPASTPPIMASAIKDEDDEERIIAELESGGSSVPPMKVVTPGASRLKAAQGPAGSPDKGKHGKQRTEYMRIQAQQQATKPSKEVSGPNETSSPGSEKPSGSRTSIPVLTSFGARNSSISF

[2] = biological target: T2, p140Cap (mouse, MMTV-p140Cap transgene, Myc epitope at the carboxyterminal region) (mouse) (UniProt Q9QWI6); assay: as above
T2 sequence: T1 sequence

Substance | binding [1] | binding [2]
Tiam1 (endogenous, human breast cancer cells) (from UniProt Q13009 1-1591) | binds | –
Tiam1 (endogenous, mouse primary cancer cells) (from UniProt Q60610 1-1591) | – | binds
